Experimental data taken from patent publication US20110143960A1, “3D-MODELS FOR HIGH-THROUGHPUT SCREENING DRUG DISCOVERY AND DEVELOPMENT” (priority 2009, published 2011).

System: MDA-MB-231 spheroids
Assay: Modified Boyden chamber cell invasion assay of cells dissociated from spheroids
Format: cell-based
Settings: control modulators, 72 h treatment, 24 h invasion, FIG. 6
Description: Secondary assay development: As a secondary assay to confirm hits from the primary assay, the Boyden chamber cell invasion method was used and modified to measure the invasive potential of cells isolated from spheroids after treatment with control modulators of EMT. Spheroids were treated as in the primary assay. Following treatment, each sample group was disassociated into single cell suspensions and seeded into invasion chambers followed by a 24 h incubation period. VimPro-Fluc-MDA-MB-231 spheroids were treated with control EMT modulators as described using 15 spheroids per sample group. The spheroids for each sample group were pooled into 1.5 ml, micro tubes and collected by centrifugation at 10,000 rpm for 10 min at room temperature.
Each sample group was then treated with 200 μL of spheroid dissociation solution (0.25% trypsin-EDTA) and incubated at 37° C. for 30 min. […]
FBS in RPMI-1640 medium, 150 μL) was added to each bottom chamber and the plate was incubated (37° C., 5% CO2) for 24 h. […] Invading cells were quantified using five random fields per filter insert in triplicate at 20× magnification using a fluorescent microscope equipped with metamorph image analysis and quantification software (Molecular Devices; Downingtown, Pa.). […]

## CNC(=O)c1ccccc1Sc1ccc2c(/C=C/c3ccccn3)n[nH]c2c1 [Axitinib]
  inhibition of invasive potential vs untreated spheroids: about 90%

## CO[C@@H]1[C@H](N(C)C(=O)c2ccccc2)C[C@H]2O[C@]1(C)n1c3ccccc3c3c4c(c5c6ccccc6n2c5c31)C(=O)NC4 [PKC412]
  inhibition of invasive potential vs untreated spheroids: about 90%
